Among the data in PMC9925823 are binding values, retold here.

Sequences of proteins named here, by UniProt entry; tags and fusion partners are left off. Residues count along the entry.
UniProt P42081, residues 24-329: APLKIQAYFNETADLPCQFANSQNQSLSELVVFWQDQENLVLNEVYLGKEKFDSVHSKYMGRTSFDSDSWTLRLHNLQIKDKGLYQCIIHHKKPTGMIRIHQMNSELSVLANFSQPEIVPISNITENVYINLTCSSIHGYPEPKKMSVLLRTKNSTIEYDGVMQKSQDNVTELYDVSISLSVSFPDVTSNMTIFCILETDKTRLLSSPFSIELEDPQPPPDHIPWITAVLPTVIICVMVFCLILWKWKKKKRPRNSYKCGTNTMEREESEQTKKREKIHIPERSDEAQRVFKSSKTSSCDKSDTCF

No constants are given. Whether binding was seen depends on the method and setting.

This test addresses endogenous EGFR with a C-terminal SNAP tag (genome-edited SUM159 cells) (human (endogenous in SUM159)) (UniProt P00533). Put plainly: two-colour single-molecule tracking (TIRF) in live cells; SUM159 cells genome-edited for EGFR-SNAP, transiently expressing HaloTag-tagged proteins, EGF stimulation; fraction of Halo tracks that interact with EGFR-SNAP.

With “HaloTag-tagged CD86, transiently expressed (from UniProt P42081 24-329) (receptor)”, the binding result is “no binding”.
